# Assay results reported in PubChem BioAssay AID2685 (National Center for Advancing Translational Sciences (NCATS), 2010).
# This is one part of the list. The main result of the screen is listed elsewhere. These columns were measured beside it and carry no call. Most of these compounds were active or inconclusive in the main read-out, so they are no random draw. Words in brackets tell the shape of the fitted curve; partial curves, single points and poor fits give uncertain potencies.
# Assay: qHTS Assay for Lipid Storage Modulators in Drosophila S3 Cells;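 as to cell number change: cells counted by Cell Tracker Red CMTPX staining in the red channel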
# Details: BODIPY lipid droplet fluorescence, 18-24 h; for cell number change: measured here: cell count max response, cells fed with added oleic acid
# Outline: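 Drosophila S3 cells loaded with oleic acid (400 uM, as added) and compounds at several concentrations; lipid droplets imaged by 488-nm laser-scanning cytometry, 500–530 nm intensity and object ratio to cell channel. Percent activity normalized to 20 uM Triacsin C.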
# [1] = measured here: cell number channel AC50, cells fed with added oleic acid
# [2] = measured here: lipid fluorescence (Fed channel) AC50, cells fed with added oleic acid
Compound,cell number change [%],AC50 [1],AC50 [2]
CSc1sc(C(=O)NC(=O)NCc2ccncc2)c(C)c1-c1ccon1,-9.38,"0.0082 µM [falling, full curve, poor fit]",
COc1ccc2oc(=N)c(C(=O)Nc3ccccc3)cc2c1,,"5.8 µM [rising, single point]","6.51 µM [rising, partial curve]"
COc1ccc(CC(=O)Nc2nc(-c3ccccc3)c(C(C)=O)s2)cc1OC,-31.4,"29.1 µM [falling, single point]",
Cc1ccc(N(C(=O)c2csnn2)C(C(=O)NC2CCCC2)c2ccccn2)cc1 (stereo unspecified),3.75,,"1.16 µM [falling, single point]"
Cc1ccc(CSc2cc(C)[nH]c(=O)n2)cc1,-8.78,"0.103 µM [falling, full curve, poor fit]",
CN1CCCN(CC(O)COCc2cccs2)CC1 (stereo unspecified),-17.9,"0.517 µM [falling, full curve, poor fit]","0.92 µM [falling, full curve]"
S=C(NCCc1ccccc1)N/N=C/C1CCCCC1,6.83,"0.146 µM [rising, full curve, poor fit]","0.103 µM [rising, full curve, poor fit]"
COCc1nc2c([nH]1)c(=O)n(C)c(=O)n2CC(C)C,27,,
CCOC(=O)C1CCN(C(=O)C2CCN(c3ncnc4c3nc3n4CCCCC3)CC2)CC1,,,"29.1 µM [falling, single point]"
Cc1ccccc1C(=O)Nc1nnc(-c2ccc(C(C)(C)C)cc2)s1,-3.17,,"0.116 µM [falling, full curve, poor fit]"
Cc1nn2c(-c3ccc(S(=O)(=O)N4CCN(C)CC4)o3)nnc2c2ccccc12,-20.5,,
CCOC(=O)c1c(C)[nH]c(C(=O)CSc2nnnn2-c2ccccc2)c1C,,"6.51 µM [rising, single point]",
COc1ccc(-c2csc(NC(=S)NC(=O)c3cccs3)n2)cc1Br,,,"1.3 µM [falling, full curve, poor fit]"
COc1ccc(CNC(=O)c2ccc(NS(=O)(=O)c3ccc4[nH]c(=O)[nH]c4c3)cc2)cc1OC,-5.56,,"6.51 µM [falling, single point]"
CCc1noc(C)c1C(=O)NCCc1ccc(F)cc1,24.5,,
COc1ccccc1NC(=O)COc1cc(C)nc(C(C)C)n1,8.18,,"16.4 µM [rising, partial curve]"
COc1ccc(NC(=O)CSc2nncc3ccccc23)cc1,,"0.13 µM [rising, full curve, poor fit]","0.326 µM [rising, full curve, poor fit]"
Cn1nnnc1N=N/C(=N/Nc1ccccc1)c1ccccc1,-64.7,"6.51 µM [falling, partial curve]","5.8 µM [falling, full curve]"
COC(=O)COc1ccc(S(=O)(=O)N2CCN(c3ccc(F)cc3)CC2)cc1,6.87,,"0.731 µM [falling, full curve, poor fit]"
CCCNC(=O)Cc1c(OC)ccc2cc(Br)ccc12,14.7,,"29.1 µM [rising, single point]"

Compound,cell number change [%],AC50 [1],AC50 [2]
Cc1ccc(C)c(-c2cc(C(=O)N/N=C/c3cccnc3)c3ccccc3n2)c1,4.69,,"18.4 µM [falling, partial curve]"
CC(C)(C)c1nnc(NC(=O)c2cc(-c3ccccc3)nc3ccccc23)s1,30.4,"13 µM [rising, partial curve, poor fit]",
Cc1cc(=O)[nH]c(N/N=C/c2cn(CCC#N)nc2-c2ccccc2)n1,9.13,"0.651 µM [rising, full curve, poor fit]","3.66 µM [rising, partial curve]"
Cc1nc(SCC(=O)Nc2c(C)n(C)n(-c3ccccc3)c2=O)nc(C)c1C,-8.17,,"18.4 µM [rising, single point]"
CC(CN1CCCCC1)OC(=O)Cc1ccc(Cl)cc1 (stereo unspecified),-53.6,"1.46 µM [falling, full curve]","5.17 µM [falling, single point]"
Clc1ccc(-c2cc(CSc3cccc(Cl)c3)on2)cc1,17.9,,"25.9 µM [rising, single point]"
Cc1ccc(C(=O)O)cc1NC(=O)Nc1cccc2ccccc12,8.05,,"0.00517 µM [rising, full curve, poor fit]"
CCc1nc2ccccc2c(C(=O)OCC(=O)NCc2ccc3c(c2)OCO3)c1C,1.93,,
O=C(c1ccco1)N1CCN(S(=O)(=O)N2CCOCC2)CC1,12.8,,"1.03 µM [falling, full curve]"
CC1C(=O)NN=C1C(=O)N/N=C\c1ccc(O)cc1O (stereo unspecified),-67.6,"10.3 µM [falling, partial curve, poor fit]","0.103 µM [falling, full curve]"
CSc1ccccc1OCc1cc(C(=O)NCCCc2ccccc2)no1,,,"20.6 µM [falling, partial curve, poor fit]"
Cc1ccccc1OCCNc1cc(N2CCNCC2)ccc1[N+](=O)[O-],19.5,,"0.461 µM [rising, partial curve, poor fit]"
Cc1ccc(N2C(=O)c3cccc4c(C(=O)O)ccc(c34)C2=O)cc1,0.481,,
CSCCC(N=C(NS(=O)(=O)c1ccc(C)cc1)c1ccccc1)C(=O)O (stereo unspecified),-45.8,"0.116 µM [falling, full curve]","0.0146 µM [falling, full curve]"
COc1ccc(N(CC(=O)NCCc2ccccc2)C(=O)c2csnn2)cc1OC,0.427,,"0.651 µM [rising, single point]"
O=C(O)C1CCCCC1C(=O)NCCc1ccncc1 (stereo unspecified),-3.9,,"0.651 µM [falling, full curve, poor fit]"
Cc1ccc(S(=O)(=O)N2CCC(C(=O)Nc3ncccc3O)CC2)cc1,1.16,,"29.1 µM [falling, single point]"
CC1(NC(=O)Nc2cc([N+](=O)[O-])ccc2O)CCS(=O)(=O)C1 (stereo unspecified),,,"29.1 µM [rising, single point]"
Cc1ccc(NP(=O)(Nc2ccc(C)cc2)Nc2ccc(C)cc2)cc1,51.5,"18.4 µM [rising, single point]",
C/C(=N\OCC(=O)Nc1ccc(OC(F)(F)F)cc1)c1ccc2c(c1)OCCO2,42.3,"11.6 µM [rising, partial curve, poor fit]","29.1 µM [rising, single point]"

# Three of the compounds above, with tabs:
Compound	cell number change [%]	AC50 [1]	AC50 [2]
COCc1nc2c([nH]1)c(=O)n(C)c(=O)n2CC(C)C	27		
CCOC(=O)C1CCN(C(=O)C2CCN(c3ncnc4c3nc3n4CCCCC3)CC2)CC1			29.1 µM [falling, single point]
Cc1ccccc1C(=O)Nc1nnc(-c2ccc(C(C)(C)C)cc2)s1	-3.17		0.116 µM [falling, full curve, poor fit]

# Further results

Compound,cell number change [%],AC50 [1],AC50 [2]
CC(C)Cc1nc(N2CCN(C(=O)Cc3ccccc3)CC2)c(C#N)c2c1COC(C)(C)C2,-10.4,,
CCc1ccccc1NC(=O)COc1cccc2ccc(C)nc12,-50.6,"11.6 µM [falling, partial curve, poor fit]","2.06 µM [rising, partial curve]"
CC(=O)c1c(C)[nH]c(C(=O)Nc2ccc(C)c(C)c2)c1C,,,"5.8 µM [rising, partial curve]"
Cc1ccc(CNC(=O)C(Cc2ccccc2)NS(=O)(=O)c2ccc3c(c2)CCC(=O)N3)cc1 (stereo unspecified),-11,,"1.3 µM [rising, full curve, poor fit]"
Cc1ccccc1S(=O)(=O)Cc1ccc(C(=O)O)o1,-79.2,"5.17 µM [falling, full curve]",
COc1ccc(-n2c(SCC#N)nc3c(sc(=S)n3-c3ccccc3)c2=O)c(OC)c1,43.7,"14.6 µM [rising, partial curve]","8.2 µM [rising, partial curve]"
CN(Cc1ccc(C(C)(C)C)cc1)C(=O)c1ccc2c(c1)OCO2,,"3.26 µM [rising, partial curve]",
N/C(Cc1ccc(Cl)cc1Cl)=N\OC(=O)c1cccs1,,"0.00651 µM [falling, full curve, poor fit]",
COc1ccc(-c2[nH]ncc2CN2CCC(c3ccncc3)CC2)cc1F,-3.87,,"0.58 µM [falling, single point]"
COc1ccc(NC(=O)CSc2nnc(-c3cccnc3)s2)cc1,,,"8.2 µM [rising, partial curve]"
C=CCN(Cc1ccc(Cl)s1)C(=O)c1cc(S(=O)(=O)N2CCOCC2)ccc1F,-20.8,,
CCC(C)N(CCNC(=O)CC1Oc2ccc(C)cc2NC1=O)C1CCCCC1 (stereo unspecified),-1.9,,"0.058 µM [falling, full curve, poor fit]"
CCCCn1c(/C=C/c2ccco2)nc2ccccc21,-16.3,,"20.6 µM [falling, single point]"
COc1ccc(OC)c(CCNC(=O)CC2Oc3ccc(C)cc3NC2=O)c1 (stereo unspecified),-0.0506,,
Cc1cc(NC(=O)CCN2C(=O)C3C4C=CC(C4)C3C2=O)ccc1Br (stereo unspecified),76.4,"20.6 µM [rising, partial curve, poor fit]",
Cc1onc(-c2ccccc2)c1C(=O)OCC(=O)NC(=O)c1ccccc1,-4.82,,
Cc1ccc(NC(=O)C(C)Oc2ccccc2)cc1S(=O)(=O)N1CCCCCC1 (stereo unspecified),-10.4,,"0.0651 µM [rising, full curve, poor fit]"
Cc1ccnc(NS(=O)(=O)c2ccc(NC(=O)c3ccc(Br)o3)cc2)n1,-42.6,"3.66 µM [falling, single point]",
CCCc1[nH]nc2c1C(C1CCCCC1)C(C#N)=C(N)O2 (stereo unspecified),,"3.26 µM [rising, single point]",
Nn1c(SCC(=O)NCCC2=CCCCC2)nnc1C(F)(F)F,-17.9,,"29.1 µM [falling, single point]"
